In article PMC6516182 one finds binding data, which are given here for four molecules.

For one test, the target named is FLAG-KIN-4 (C. elegans). Briefly: co-IP; HEK293T cells; FLAG-KIN-4 immunoprecipitated, HA-DAF-18 detected by immunoblotting. A general note: A western blot detects proteins with antibodies after separation by electrophoresis.
In test [1] the target is GST-fused kinase domain-containing KIN-4 middle fragment [Mid] (C. elegans). Nature of the test: pull-down; GST pull-down; GST-fused KIN-4 fragments or PDZ domain as bait, HA- or FLAG-tagged DAF-18 as prey; details in the Supporting Information.
The target of test [2] is GST-fused PDZ domain-containing KIN-4 C-terminal fragment [C] (C. elegans). The description is as above.
Test [3] has as its target GST-fused N-terminal KIN-4 fragment [N] (C. elegans). The test is described as above.
For test [4], the target named is GST-fused KIN-4 PDZ domain (C. elegans). Described as above.

These are yes or no findings as the source states them, for the method shown. Binding seen in cells or lysates may run through a third protein. For some of these results: Binding calls can cover weak binding; strength is not graded here. Sequences can lack the tags named with a protein.

B1: HA-DAF-18 (protein, UniProt G5EE01 1-962)
chain: MVTPPPDVPSTSTRSMARDLQENPNRQPGEPRVSEPYHNSIVERIRHIFRTAVSSNRCRTEYQNIDLDCAYITDRIIAIGYPATGIEANFRNSKVQTQQFLTRRHGKGNVKVFNLRGGYYYDADNFDGNVICFDMTDHHPPSLELMAPFCREAKEWLEADDKHVIAVHCKAGKGRTGVMICALLIYINFYPSPRQILDYYSIIRTKNNKGVTIPSQRRYIYYYHKLRERELNYLPLRMQLIGVYVERPPKTWGGGSKIKVEVGNGSTILFKPDPLIISKSNHQRERATWLNNCDTPNEFDTGEQKYHGFVSKRAYCFMVPEDAPVFVEGDVRIDIREIGFLKKFSDGKIGHVWFNTMFACDGGLNGGHFEYVDKTQPYIGDDTSIGRKNGMRRNETPMRKIDPETGNEFESPWQIVNPPGLEKHITEEQAMENYTNYGMIPPRYTISKILHEKHEKGIVKDDYNDRKLPMGDKSYTESGKSGDIRGVGGPFEIPYKAEEHVLTFPVYEMDRALKSKDLNNGMKLHVVLRCVDTRDSKMMEKSEVFGNLAFHNESTRRLQALTQMNPKWRPEPCAFGSKGAEMHYPPSVRYSSNDGKYNGACSENLVSDFFEHRNIAVLNRYCRYFYKQRSTSRSRYPRKFRYCPLIKKHFYIPADTDDVDENGQPFFHSPEHYIKEQEKIDAEKAAKGIENTGPSTSGSSAPGTIKKTEASQSDKVKPATEDELPPARLPDNVRRFPVVGVDFENPEEESCEHKTVESIAGFEPLEHLFHESYHPNTAGNMLRQDYHTDSEVKIAEQEAKAFVDQLLNGQGVLQEFMKQFKVPSDNSFADYVTGQAEVFKAQIALLEQSEDFQRVQANAEEVDLEHTLGEAFERFGHVVEESNGSSKNPKALKTREQMVKETGKDTQKTRNHVLLHLEANHRVQIERRETCPELHPEDKIPRIAHFSENSFSDSNFDQAIYL
On to B1, for which the binding entry with FLAG-KIN-4 (C. elegans) is “binds”; in test [1] it was “no binding”; in test [2], “binds”; in test [3], “no binding”.

B2: FLAG-tagged full-length DAF-18, wild type (protein, UniProt G5EE01 1-962)
chain: B1 chain
Consider B2, for which the binding result in test [4] is “binds”.

B3: FLAG-DAF-18 Δ12C (domain or fragment, UniProt G5EE01 1-950)
chain: MVTPPPDVPSTSTRSMARDLQENPNRQPGEPRVSEPYHNSIVERIRHIFRTAVSSNRCRTEYQNIDLDCAYITDRIIAIGYPATGIEANFRNSKVQTQQFLTRRHGKGNVKVFNLRGGYYYDADNFDGNVICFDMTDHHPPSLELMAPFCREAKEWLEADDKHVIAVHCKAGKGRTGVMICALLIYINFYPSPRQILDYYSIIRTKNNKGVTIPSQRRYIYYYHKLRERELNYLPLRMQLIGVYVERPPKTWGGGSKIKVEVGNGSTILFKPDPLIISKSNHQRERATWLNNCDTPNEFDTGEQKYHGFVSKRAYCFMVPEDAPVFVEGDVRIDIREIGFLKKFSDGKIGHVWFNTMFACDGGLNGGHFEYVDKTQPYIGDDTSIGRKNGMRRNETPMRKIDPETGNEFESPWQIVNPPGLEKHITEEQAMENYTNYGMIPPRYTISKILHEKHEKGIVKDDYNDRKLPMGDKSYTESGKSGDIRGVGGPFEIPYKAEEHVLTFPVYEMDRALKSKDLNNGMKLHVVLRCVDTRDSKMMEKSEVFGNLAFHNESTRRLQALTQMNPKWRPEPCAFGSKGAEMHYPPSVRYSSNDGKYNGACSENLVSDFFEHRNIAVLNRYCRYFYKQRSTSRSRYPRKFRYCPLIKKHFYIPADTDDVDENGQPFFHSPEHYIKEQEKIDAEKAAKGIENTGPSTSGSSAPGTIKKTEASQSDKVKPATEDELPPARLPDNVRRFPVVGVDFENPEEESCEHKTVESIAGFEPLEHLFHESYHPNTAGNMLRQDYHTDSEVKIAEQEAKAFVDQLLNGQGVLQEFMKQFKVPSDNSFADYVTGQAEVFKAQIALLEQSEDFQRVQANAEEVDLEHTLGEAFERFGHVVEESNGSSKNPKALKTREQMVKETGKDTQKTRNHVLLHLEANHRVQIERRETCPELHPEDKIPRIAHFSENS
In the case of B3, the binding entry in test [4] is “binds weakly”.

B4: FLAG-DAF-18 Δ4C (domain or fragment, UniProt G5EE01 1-958)
chain: MVTPPPDVPSTSTRSMARDLQENPNRQPGEPRVSEPYHNSIVERIRHIFRTAVSSNRCRTEYQNIDLDCAYITDRIIAIGYPATGIEANFRNSKVQTQQFLTRRHGKGNVKVFNLRGGYYYDADNFDGNVICFDMTDHHPPSLELMAPFCREAKEWLEADDKHVIAVHCKAGKGRTGVMICALLIYINFYPSPRQILDYYSIIRTKNNKGVTIPSQRRYIYYYHKLRERELNYLPLRMQLIGVYVERPPKTWGGGSKIKVEVGNGSTILFKPDPLIISKSNHQRERATWLNNCDTPNEFDTGEQKYHGFVSKRAYCFMVPEDAPVFVEGDVRIDIREIGFLKKFSDGKIGHVWFNTMFACDGGLNGGHFEYVDKTQPYIGDDTSIGRKNGMRRNETPMRKIDPETGNEFESPWQIVNPPGLEKHITEEQAMENYTNYGMIPPRYTISKILHEKHEKGIVKDDYNDRKLPMGDKSYTESGKSGDIRGVGGPFEIPYKAEEHVLTFPVYEMDRALKSKDLNNGMKLHVVLRCVDTRDSKMMEKSEVFGNLAFHNESTRRLQALTQMNPKWRPEPCAFGSKGAEMHYPPSVRYSSNDGKYNGACSENLVSDFFEHRNIAVLNRYCRYFYKQRSTSRSRYPRKFRYCPLIKKHFYIPADTDDVDENGQPFFHSPEHYIKEQEKIDAEKAAKGIENTGPSTSGSSAPGTIKKTEASQSDKVKPATEDELPPARLPDNVRRFPVVGVDFENPEEESCEHKTVESIAGFEPLEHLFHESYHPNTAGNMLRQDYHTDSEVKIAEQEAKAFVDQLLNGQGVLQEFMKQFKVPSDNSFADYVTGQAEVFKAQIALLEQSEDFQRVQANAEEVDLEHTLGEAFERFGHVVEESNGSSKNPKALKTREQMVKETGKDTQKTRNHVLLHLEANHRVQIERRETCPELHPEDKIPRIAHFSENSFSDSNFDQ
As to B4, the binding result in test [4] is recorded as “binds weakly”.
